From PMC4810098

By UniProt entry, the sequences of proteins in these tests, tags left out. Where a name states a change or a piece, a line headed by the entry shows the natural chain unless it says otherwise.
UniProt P06709: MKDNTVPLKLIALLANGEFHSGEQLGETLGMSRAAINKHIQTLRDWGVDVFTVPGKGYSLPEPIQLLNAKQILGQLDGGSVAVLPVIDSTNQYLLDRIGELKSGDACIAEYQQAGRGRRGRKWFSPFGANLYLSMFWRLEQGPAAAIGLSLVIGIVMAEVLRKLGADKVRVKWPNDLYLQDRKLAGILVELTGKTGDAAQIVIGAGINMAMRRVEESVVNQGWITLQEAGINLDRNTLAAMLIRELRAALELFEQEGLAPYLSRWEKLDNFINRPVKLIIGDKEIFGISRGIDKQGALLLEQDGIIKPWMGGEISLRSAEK

T1: BirA-R118G-NE81 (Dictyostelium discoideum) (UniProt Q54HI5)
T1 sequence: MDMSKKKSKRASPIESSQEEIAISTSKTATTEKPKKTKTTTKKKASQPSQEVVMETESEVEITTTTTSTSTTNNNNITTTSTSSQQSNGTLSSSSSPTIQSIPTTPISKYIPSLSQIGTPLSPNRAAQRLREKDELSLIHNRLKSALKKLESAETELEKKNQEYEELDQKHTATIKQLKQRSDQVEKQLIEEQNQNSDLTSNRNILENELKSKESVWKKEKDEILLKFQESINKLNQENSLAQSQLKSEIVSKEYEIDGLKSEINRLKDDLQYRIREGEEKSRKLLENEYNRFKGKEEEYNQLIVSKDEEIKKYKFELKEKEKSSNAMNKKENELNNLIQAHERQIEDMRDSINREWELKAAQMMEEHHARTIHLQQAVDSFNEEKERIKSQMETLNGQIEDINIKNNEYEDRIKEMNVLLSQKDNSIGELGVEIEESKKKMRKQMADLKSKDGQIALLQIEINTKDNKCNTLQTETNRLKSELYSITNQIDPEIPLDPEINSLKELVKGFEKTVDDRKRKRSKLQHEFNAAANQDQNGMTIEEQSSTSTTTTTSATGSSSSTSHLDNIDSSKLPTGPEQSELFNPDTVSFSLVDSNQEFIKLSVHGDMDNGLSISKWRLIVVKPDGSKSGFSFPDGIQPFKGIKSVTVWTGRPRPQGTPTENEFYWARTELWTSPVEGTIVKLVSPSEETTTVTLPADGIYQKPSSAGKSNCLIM


Assays:
[1] = target: T1, BirA-R118G-NE81 (Dictyostelium discoideum); assay: proximity labelling; BioID in Dictyostelium cells expressing BirA-R118G-NE81 or BirA-R118G alone (control); Western blots of nuclear extracts, split lanes stained with streptavidin-CIP, anti-NE81 and anti-Src1
[2] = target: BirA-R118G (E. coli) (UniProt P06709); assay: as above

Row | binding [1] | binding [2] | Molecule
1 | binds |  | Src1 (Dictyostelium discoideum), endogenous
2 |  | no binding | NE81, endogenous (protein, UniProt Q54HI5 1-716) MDMSKKKSKRASPIESSQEEIAISTSKTATTEKPKKTKTTTKKKASQPSQEVVMETESEVEITTTTTSTSTTNNNNITTTSTSSQQSNGTLSSSSSPTIQSIPTTPISKYIPSLSQIGTPLSPNRAAQRLREKDELSLIHNRLKSALKKLESAETELEKKNQEYEELDQKHTATIKQLKQRSDQVEKQLIEEQNQNSDLTSNRNILENELKSKESVWKKEKDEILLKFQESINKLNQENSLAQSQLKSEIVSKEYEIDGLKSEINRLKDDLQYRIREGEEKSRKLLENEYNRFKGKEEEYNQLIVSKDEEIKKYKFELKEKEKSSNAMNKKENELNNLIQAHERQIEDMRDSINREWELKAAQMMEEHHARTIHLQQAVDSFNEEKERIKSQMETLNGQIEDINIKNNEYEDRIKEMNVLLSQKDNSIGELGVEIEESKKKMRKQMADLKSKDGQIALLQIEINTKDNKCNTLQTETNRLKSELYSITNQIDPEIPLDPEINSLKELVKGFEKTVDDRKRKRSKLQHEFNAAANQDQNGMTIEEQSSTSTTTTTSATGSSSSTSHLDNIDSSKLPTGPEQSELFNPDTVSFSLVDSNQEFIKLSVHGDMDNGLSISKWRLIVVKPDGSKSGFSFPDGIQPFKGIKSVTVWTGRPRPQGTPTENEFYWARTELWTSPVEGTIVKLVSPSEETTTVTLPADGIYQKPSSAGKSNCLIM

No constants are given. Whether binding was seen depends on the method and setting. In cells and extracts the contact can be indirect. A yes stands for co-enrichment or nearness to the bait. Other partners may have been found. For some assays here: A no says only that the protein was not detected with the bait.
